Data as given in PMC10870245.
No constants are given. Whether binding was seen depends on the method and setting. Binding seen in cells or lysates may run through a third protein. Some binding calls cover weakened binding; strength is not graded here. Sequences can lack the tags named with a protein.

Molecular target: T1, PDZ-binding kinase (FLAG-PBK) (UniProt Q96KB5)
T1 sequence: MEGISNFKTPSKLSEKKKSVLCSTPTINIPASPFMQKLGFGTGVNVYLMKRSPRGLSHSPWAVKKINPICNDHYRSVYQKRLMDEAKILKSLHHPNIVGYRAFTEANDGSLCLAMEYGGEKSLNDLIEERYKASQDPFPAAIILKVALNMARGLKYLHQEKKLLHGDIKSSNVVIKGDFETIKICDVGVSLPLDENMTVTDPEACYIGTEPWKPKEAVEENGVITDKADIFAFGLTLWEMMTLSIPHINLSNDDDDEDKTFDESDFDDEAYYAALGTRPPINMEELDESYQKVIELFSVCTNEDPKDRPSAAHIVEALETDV
Assay: co-IP; HEK293 cells transfected with GFP-CDK5 and FLAG-PBK; beads with anti-FLAG or GFP antibodies; Western blot

Substance: cyclin-dependent kinase 5 (GFP-CDK5) (from UniProt Q00535 1-292) (enzyme)
- binding: binds
